In PMC8274477:
These are yes or no findings as the source states them, for the method shown. Some binding calls cover weakened binding; strength is not graded here.

The chains behind the UniProt entries cited, without tags or fusion partners.
UniProt P19793: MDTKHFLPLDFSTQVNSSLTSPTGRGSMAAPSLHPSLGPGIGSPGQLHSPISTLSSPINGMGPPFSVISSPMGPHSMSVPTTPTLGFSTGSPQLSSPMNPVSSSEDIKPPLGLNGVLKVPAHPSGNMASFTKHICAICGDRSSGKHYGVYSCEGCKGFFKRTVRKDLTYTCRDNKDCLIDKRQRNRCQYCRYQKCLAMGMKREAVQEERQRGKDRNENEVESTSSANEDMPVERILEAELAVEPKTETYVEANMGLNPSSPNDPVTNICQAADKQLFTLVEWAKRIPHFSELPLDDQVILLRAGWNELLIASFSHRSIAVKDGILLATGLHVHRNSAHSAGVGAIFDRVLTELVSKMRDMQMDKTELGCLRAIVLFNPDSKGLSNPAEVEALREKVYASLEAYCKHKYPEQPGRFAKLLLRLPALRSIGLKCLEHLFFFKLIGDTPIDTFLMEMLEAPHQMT

Legend:
Experiment in all cases: peptide or protein array; HuProt human proteome microarray; 5 ug/5 ml biotin-labelled LUBAC or OTULIN in solution, 1 h at room temperature; Cy5-streptavidin, scanned at 635 nm; BSA as negative control; hits: Z-score >= 3 and I_(Mean_Ratio) >= 1.4; both purified
ACOT7 (human) = target: T1, ACOT7 (human) (UniProt O00154)
T1 sequence: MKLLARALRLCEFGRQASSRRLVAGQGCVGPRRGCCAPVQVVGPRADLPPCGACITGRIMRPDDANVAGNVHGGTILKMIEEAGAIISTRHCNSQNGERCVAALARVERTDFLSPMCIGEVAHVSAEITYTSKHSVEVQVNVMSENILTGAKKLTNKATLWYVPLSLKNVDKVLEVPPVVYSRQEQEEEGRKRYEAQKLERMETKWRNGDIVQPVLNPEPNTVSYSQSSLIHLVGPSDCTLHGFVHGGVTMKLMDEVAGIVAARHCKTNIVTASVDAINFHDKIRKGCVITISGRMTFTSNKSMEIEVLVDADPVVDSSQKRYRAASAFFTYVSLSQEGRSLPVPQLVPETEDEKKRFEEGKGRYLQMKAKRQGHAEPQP

FKBP1A (human) = FKBP1A (human) (UniProt P62942)
MCCC2 (human) = target: T2, MCCC2 (human) (UniProt Q9HCC0)
T2 sequence: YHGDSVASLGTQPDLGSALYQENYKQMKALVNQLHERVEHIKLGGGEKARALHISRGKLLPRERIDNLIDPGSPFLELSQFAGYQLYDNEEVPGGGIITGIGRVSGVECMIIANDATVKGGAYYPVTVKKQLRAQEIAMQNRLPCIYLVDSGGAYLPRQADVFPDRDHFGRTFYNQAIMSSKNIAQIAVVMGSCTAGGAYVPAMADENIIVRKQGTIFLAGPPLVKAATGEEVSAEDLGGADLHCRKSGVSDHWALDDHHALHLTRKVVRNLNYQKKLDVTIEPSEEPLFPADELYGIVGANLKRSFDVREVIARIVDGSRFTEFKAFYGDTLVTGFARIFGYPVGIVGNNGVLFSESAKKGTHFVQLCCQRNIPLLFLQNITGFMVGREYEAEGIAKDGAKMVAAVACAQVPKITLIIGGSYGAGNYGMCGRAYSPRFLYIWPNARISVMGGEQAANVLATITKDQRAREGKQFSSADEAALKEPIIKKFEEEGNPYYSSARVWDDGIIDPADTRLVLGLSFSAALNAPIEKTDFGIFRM

QKI (human) = target: T3, QKI (human) (UniProt Q96PU8)
T3 sequence: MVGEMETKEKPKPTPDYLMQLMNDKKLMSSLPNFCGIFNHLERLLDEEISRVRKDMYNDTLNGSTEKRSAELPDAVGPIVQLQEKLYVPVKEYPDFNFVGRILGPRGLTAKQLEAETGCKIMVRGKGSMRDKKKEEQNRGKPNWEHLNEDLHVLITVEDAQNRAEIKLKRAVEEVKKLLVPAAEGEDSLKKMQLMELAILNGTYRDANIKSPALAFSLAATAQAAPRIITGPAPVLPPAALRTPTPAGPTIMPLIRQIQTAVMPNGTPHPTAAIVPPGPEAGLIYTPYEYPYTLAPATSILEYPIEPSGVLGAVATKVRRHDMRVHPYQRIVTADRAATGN

RXRA (human) = RXRA (human) (UniProt P19793)
TRMT2A (human) = target: T4, TRMT2A (human) (UniProt Q8IZ69)
T4 sequence: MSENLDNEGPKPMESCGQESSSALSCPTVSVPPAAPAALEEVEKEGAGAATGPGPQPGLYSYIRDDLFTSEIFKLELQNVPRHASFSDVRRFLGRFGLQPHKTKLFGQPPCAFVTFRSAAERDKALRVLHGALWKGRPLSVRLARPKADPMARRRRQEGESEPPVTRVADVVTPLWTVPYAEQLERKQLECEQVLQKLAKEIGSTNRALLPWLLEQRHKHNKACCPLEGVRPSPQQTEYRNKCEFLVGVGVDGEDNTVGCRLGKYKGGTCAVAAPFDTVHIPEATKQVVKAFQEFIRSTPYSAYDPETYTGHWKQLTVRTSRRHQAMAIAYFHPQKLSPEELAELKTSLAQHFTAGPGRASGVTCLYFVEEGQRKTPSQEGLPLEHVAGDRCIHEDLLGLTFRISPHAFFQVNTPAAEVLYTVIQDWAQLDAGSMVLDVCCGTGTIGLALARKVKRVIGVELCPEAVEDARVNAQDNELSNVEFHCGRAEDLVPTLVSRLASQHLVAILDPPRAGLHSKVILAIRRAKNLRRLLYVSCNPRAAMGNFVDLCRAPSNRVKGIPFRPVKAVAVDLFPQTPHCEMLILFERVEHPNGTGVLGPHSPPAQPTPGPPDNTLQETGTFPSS

Measured: binding

linear ubiquitin chain assembly complex (LUBAC), purified as HIS-tagged HOIP with the subunit HOIL-1, biotin-labelled (from UniProt Q96EP0 1-1072; Q9BYM8 1-510)
binds: all assays above
